# Results deposited as PubChem BioAssay AID1259424 (University of Nebraska Medical Center, 2018).
# Purpose: 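Seek colon cancer survival genes behaving like KSR1, using a six-gene signature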 (primary screen)
# Cell system: human HCT116 colon cancer cells
# Reagents: siRNA pool against human genes, 50 nM
# Detection: 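Log2 levels of six mRNAs (branched-DNA multiplex), adjusted by two reference genes and the non-targeting median, then scored against the average KSR1 knockdown pattern as Pearson r and euclidean distance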
# Direction: mean correlation with KSR1 profile and KSR1 correlation: higher = expression change more like KSR1 knockdown; mean distance from KSR1 profile: higher = expression change less like KSR1 knockdown
# Shown is an unselected part of about 14,000 reagents tested. 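Higher correlation or smaller distance means closer resemblance to KSR1 loss; control wells, including KSR1 knockdowns, recur on many plates.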 Not all columns of the deposit are shown. Not stated in the record: the time to read-out.
mean correlation with KSR1 profile,mean distance from KSR1 profile,"KSR1 correlation, replicate 1","KSR1 correlation, replicate 2",Target gene
0.366,1.7,0.337,0.332,SOX21
-0.188,2.85,-0.164,-0.0798,MOB3B
0.73,1.46,-0.15,0.785,ZKSCAN3
0.422,1.59,0.0538,0.523,CNR1
0.0831,1.78,0.193,0.0417,TOMM34
-0.0723,1.35,0.0291,-0.0898,PYGM
0.563,1.89,0.111,0.836,SEC14L5
0.0351,3.66,-0.0848,0.0228,DPH2
-0.349,1.98,-0.505,-0.658,KIR2DS4
0.27,1.03,-0.198,0.447,RNF8
-0.44,1.58,-0.669,-0.439,SPATA20
-0.431,1.62,0.0703,-0.0481,PRG2
0.193,2.53,0.241,-0.0271,UGCG
0.543,1.25,0.611,0.324,ENKD1
-0.0917,2.26,0.0315,-0.266,HAL
0.581,1.97,0.221,0.524,SCUBE2
0.0535,1.46,0.351,-0.211,STK17A
-0.0227,3.4,0.055,-0.33,DBF4B
-0.762,2.23,-0.752,-0.721,HARS2
-0.319,2.37,-0.238,-0.207,BUB3
0.46,1.29,0.121,0.13,RAMAC
0.142,4.17,0.0681,-0.0768,AIFM2
-0.693,2.6,-0.474,-0.677,CPEB3
0.344,2,-0.23,0.411,TMEM79
0.326,1.79,0.217,0.136,KRT34
0.18,1.6,0.177,0.174,IFI6
-0.319,4.92,-0.302,-0.423,TMEM35A
-0.656,2.07,-0.531,-0.443,PCYT1A
-0.37,2.08,-0.131,-0.553,SUMO3
0.115,2.24,0.388,0.0621,HOXD13
0.0808,2.44,0.186,-0.0294,CSTA
0.653,0.888,0.592,0.83,TAF9B
-0.428,2.68,-0.174,-0.303,RNF43
-0.00909,1.35,0.249,-0.346,STRBP
-0.12,1.54,-0.235,-0.0623,IFNAR2
0.7,2.66,0.25,0.251,COX10
-0.199,1.67,-0.177,-0.686,CSNK2B
-0.477,1.53,-0.574,-0.6,PLN
-0.367,2.7,-0.408,-0.273,GPI
-0.8,1.89,-0.713,-0.562,SYF2
-0.204,1.87,0.338,-0.138,SCML1
-0.689,2.55,-0.769,-0.564,VPS35L
0.28,1.08,0.326,0.0582,MSRB2
-0.259,2.65,-0.282,-0.296,NXPH3
-0.539,2.32,-0.557,-0.651,WDTC1
0.661,2.25,0.508,0.76,TM2D2
0.523,1.73,0.507,0.395,BRK1
-0.0406,2.34,0.0613,-0.0103,AHRR
-0.586,3.16,-0.654,-0.695,PGBD3
-0.335,2.18,-0.487,-0.226,LY9

Just “mean distance from KSR1 profile” (7 entries from above):
KRT34	1.79
IFI6	1.6
TMEM35A	4.92
PCYT1A	2.07
SUMO3	2.08
HOXD13	2.24
CSTA	2.44
